Laboratory results taken from US20060030524A1, “Treatment of systemic lupus erythematosus by down-regulating the autoimmune response to autoantigens” (Yeda Research and Development Co. Ltd., priority 1998, published 2006).
Results are given in words; binding and its absence hold for the method and conditions named. Some binding calls cover weakened binding; strength is not graded here.

Target: anti-p53 monoclonal antibody PAb-421
Test: ELISA (FIG. 7), idiotypic binding

B1: monoclonal antibody IDI-1 (antibody, V domains shown)
VH: QVQLQQSGAELVRPGASVKLSCKASGYIFTSYWINWVRQRPGQGLEWIGNISPADSSTNYNQKFKDKATLTVDKSSTTAYMQLSRPTFEDSAVYYCAREEVRRRRDMDFWGQGTSVTVSS
VL: DIVITQDELSNPVTSGESVSISCRSRQSLLYKNGKTYLNWFLQRPGQSPQLLIYLMSIRASGVSDRFSGNGSGTDFTLEISRVRAEDVGVYYCQQLVEYPYTFGGGTKLEIKR
- binding: binds
